Reference: article PMC6091194
Results are given in words; binding and its absence hold for the method and conditions named. Binding seen in cells or lysates may run through a third protein. Some results given as binding are weak or reduced against the parent protein; the word gives no strength.

Chains of the proteins cited; added tags and fusions are not shown.
UniProt Q08460: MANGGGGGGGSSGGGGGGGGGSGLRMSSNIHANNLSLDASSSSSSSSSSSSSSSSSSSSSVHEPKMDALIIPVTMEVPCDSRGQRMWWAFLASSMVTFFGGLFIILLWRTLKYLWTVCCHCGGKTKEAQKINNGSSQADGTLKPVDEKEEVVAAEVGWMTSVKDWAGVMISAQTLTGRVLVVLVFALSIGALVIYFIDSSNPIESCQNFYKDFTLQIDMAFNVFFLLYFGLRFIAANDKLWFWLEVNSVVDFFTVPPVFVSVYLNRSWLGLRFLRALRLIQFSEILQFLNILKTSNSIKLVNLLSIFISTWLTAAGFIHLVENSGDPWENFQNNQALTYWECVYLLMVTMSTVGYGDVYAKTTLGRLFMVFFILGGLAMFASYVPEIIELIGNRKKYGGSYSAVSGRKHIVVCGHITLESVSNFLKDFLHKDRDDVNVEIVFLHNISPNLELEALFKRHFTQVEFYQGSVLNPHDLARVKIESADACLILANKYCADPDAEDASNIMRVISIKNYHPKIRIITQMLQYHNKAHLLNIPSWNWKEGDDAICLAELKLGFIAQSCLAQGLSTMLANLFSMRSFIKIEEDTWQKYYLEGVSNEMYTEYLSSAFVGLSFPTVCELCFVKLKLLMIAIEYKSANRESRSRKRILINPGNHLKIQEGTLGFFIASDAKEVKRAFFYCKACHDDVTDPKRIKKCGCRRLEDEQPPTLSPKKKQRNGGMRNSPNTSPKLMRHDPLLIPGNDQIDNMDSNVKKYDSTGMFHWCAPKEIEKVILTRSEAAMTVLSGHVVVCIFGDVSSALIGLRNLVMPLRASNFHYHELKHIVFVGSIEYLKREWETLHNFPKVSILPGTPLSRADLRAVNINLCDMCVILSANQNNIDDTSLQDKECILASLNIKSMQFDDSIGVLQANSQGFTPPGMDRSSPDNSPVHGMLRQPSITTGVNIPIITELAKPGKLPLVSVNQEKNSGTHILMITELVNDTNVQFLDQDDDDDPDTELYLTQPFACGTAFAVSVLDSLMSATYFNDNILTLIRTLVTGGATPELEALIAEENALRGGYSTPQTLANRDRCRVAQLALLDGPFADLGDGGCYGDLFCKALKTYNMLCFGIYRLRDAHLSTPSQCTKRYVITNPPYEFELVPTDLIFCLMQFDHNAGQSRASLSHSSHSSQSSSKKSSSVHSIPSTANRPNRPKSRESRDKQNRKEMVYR

Assays:
[1] = target: T1, Secreted protein acidic and cysteine rich (SPARC) (mouse (endogenous in CBA/J mouse cochlear sensory epithelium)) (UniProt P07214); assay: co-IP; reciprocal co-IP from P3 mouse cochlear sensory epithelium lysate with antibodies to SPARC or Parvin, Protein G beads; blots probed with BKα or Ilk polyclonal antibody; control rabbit IgG
T1 sequence: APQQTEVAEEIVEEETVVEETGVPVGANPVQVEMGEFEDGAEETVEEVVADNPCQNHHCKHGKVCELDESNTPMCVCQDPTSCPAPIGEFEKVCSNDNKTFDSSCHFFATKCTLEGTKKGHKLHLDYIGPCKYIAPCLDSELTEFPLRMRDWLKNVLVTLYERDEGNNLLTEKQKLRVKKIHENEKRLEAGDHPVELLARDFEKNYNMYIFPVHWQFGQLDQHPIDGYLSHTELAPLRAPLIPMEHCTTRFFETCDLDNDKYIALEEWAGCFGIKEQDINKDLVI

[2] = target: Kcnma1, large conductance calcium-activated potassium channel (mouse (endogenous in CBA/J mouse cochlear sensory epithelium)) (UniProt Q08460); assay: co-IP; immunocomplex capture from P3 mouse cochlear sensory epithelium lysate with anti-Kcnma1 or anti-Ilk polyclonal antibody, rec-Protein G Sepharose 4B beads, 4 °C; washes in PBS and PBS/0.1% Triton X-100; blots probed with anti-SPARC or anti-Parvin; control rabbit IgG
[3] = target: T2, Integrin-linked protein kinase (Ilk) (mouse (endogenous in CBA/J mouse cochlear sensory epithelium)) (UniProt O55222); assay: as above
T2 sequence: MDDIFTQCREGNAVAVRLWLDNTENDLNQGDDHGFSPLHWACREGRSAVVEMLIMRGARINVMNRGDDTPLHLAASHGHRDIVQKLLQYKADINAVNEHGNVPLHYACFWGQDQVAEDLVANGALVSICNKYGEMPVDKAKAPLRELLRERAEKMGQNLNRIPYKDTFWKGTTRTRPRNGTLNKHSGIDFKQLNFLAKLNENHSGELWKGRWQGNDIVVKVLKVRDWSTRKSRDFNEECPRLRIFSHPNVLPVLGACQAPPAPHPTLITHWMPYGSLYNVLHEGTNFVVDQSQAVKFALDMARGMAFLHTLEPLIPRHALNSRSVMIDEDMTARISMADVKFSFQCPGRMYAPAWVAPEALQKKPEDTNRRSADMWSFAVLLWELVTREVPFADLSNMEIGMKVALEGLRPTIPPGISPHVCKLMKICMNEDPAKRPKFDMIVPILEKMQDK

Kcnma1, large conductance calcium-activated potassium channel (from UniProt Q08460 1-1209)
binding [1]: binds

B1: Secreted protein acidic and cysteine rich (SPARC) (protein, UniProt P07214 18-302)
chain: T1 sequence
binding [2]: binds

B2: Parvin α (actopaxin) (protein, UniProt Q9EPC1 1-372)
chain: MATSPQKSPLVPKSPTPKSPPSRKKDDSFLGKLGGTLARRKKAKEVSEFQEEGMNAINLPLSPISFELDPEDTLLEENEVRTMVDPNSRNDPKLQELMKVLIDWINDVLVGERIIVKDLAEDLYDGQVLQKLFEKLESEKLNVAEVTQSEIAQKQKLQTVLEKINETLKLPPRSIKWNVDSVHAKNLVAILHLLVALSQYFRAPIRLPDHVSIQVVVVQKREGILQSRQIQEEITGNTEALSGRHERDAFDTLFDHAPDKLNVVKKTLITFVNKHLNKLNLEVTELETQFADGVYLVLLMGLLEGYFVPLHSFFLTPDSFEQKVLNVSFAFELMQDGGLEKPKPRPEDIVNCDLKSTLRVLYNLFTKYRNVE
binding [3]: binds
